According to publication PMC6166128:
These are yes or no findings as the source states them, for the method shown. Binding seen in cells or lysates may run through a third protein. Binding can be weak; no strength is given.

By UniProt entry, the sequences of proteins in these tests, tags left out. Where a name states a change or a piece, a line headed by the entry shows the natural chain unless it says otherwise.
UniProt P13382: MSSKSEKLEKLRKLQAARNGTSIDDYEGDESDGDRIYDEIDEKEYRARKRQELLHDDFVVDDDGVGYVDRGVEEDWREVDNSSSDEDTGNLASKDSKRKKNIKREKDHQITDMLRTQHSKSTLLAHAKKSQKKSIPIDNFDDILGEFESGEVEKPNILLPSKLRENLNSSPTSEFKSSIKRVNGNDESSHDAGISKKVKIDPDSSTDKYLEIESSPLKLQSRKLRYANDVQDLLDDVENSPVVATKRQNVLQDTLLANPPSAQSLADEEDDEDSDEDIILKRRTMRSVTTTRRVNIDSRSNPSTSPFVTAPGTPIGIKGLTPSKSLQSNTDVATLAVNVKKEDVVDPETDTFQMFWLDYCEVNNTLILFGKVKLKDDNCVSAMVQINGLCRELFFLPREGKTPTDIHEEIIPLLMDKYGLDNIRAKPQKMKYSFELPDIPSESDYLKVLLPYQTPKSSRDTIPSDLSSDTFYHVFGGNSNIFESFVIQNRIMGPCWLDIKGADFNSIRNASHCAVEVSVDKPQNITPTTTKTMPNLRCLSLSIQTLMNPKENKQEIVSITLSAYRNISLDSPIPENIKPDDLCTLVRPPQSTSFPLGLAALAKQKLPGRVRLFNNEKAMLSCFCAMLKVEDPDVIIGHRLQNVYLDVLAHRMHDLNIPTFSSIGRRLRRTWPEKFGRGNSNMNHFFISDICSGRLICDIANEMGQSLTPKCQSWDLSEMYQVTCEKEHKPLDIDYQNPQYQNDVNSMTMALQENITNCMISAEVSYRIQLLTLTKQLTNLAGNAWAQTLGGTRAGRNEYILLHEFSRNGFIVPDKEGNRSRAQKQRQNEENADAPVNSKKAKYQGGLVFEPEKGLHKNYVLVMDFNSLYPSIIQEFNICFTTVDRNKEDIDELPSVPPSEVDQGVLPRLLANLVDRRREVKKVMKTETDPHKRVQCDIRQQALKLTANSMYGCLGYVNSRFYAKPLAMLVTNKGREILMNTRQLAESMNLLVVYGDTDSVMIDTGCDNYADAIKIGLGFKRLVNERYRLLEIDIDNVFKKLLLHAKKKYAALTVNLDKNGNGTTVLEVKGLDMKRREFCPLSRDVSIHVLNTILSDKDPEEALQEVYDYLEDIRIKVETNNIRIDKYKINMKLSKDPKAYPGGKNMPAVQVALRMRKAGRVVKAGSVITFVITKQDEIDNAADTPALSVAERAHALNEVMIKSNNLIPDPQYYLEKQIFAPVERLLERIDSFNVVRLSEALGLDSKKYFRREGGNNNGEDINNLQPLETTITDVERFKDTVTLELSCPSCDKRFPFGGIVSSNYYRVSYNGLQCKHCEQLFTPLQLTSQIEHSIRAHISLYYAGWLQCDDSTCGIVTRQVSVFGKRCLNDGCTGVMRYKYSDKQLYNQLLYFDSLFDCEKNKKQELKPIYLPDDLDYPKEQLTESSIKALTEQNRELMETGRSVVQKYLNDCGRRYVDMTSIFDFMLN

Target: T1, TAP-Sld5 (CMG helicase component Sld5) (S. cerevisiae) (UniProt Q03406)
T1 sequence: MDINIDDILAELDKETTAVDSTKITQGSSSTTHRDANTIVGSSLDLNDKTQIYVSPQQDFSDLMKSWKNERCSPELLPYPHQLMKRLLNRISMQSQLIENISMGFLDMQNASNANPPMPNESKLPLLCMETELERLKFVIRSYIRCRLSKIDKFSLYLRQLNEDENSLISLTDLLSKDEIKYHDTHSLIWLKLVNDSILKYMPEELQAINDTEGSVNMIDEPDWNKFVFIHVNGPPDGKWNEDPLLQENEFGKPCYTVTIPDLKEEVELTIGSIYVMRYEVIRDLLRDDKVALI
Test: co-IP; TAP-Sld5 isolated on IgG-coated magnetic beads from extracts of yeast cells in G1-phase or 30' into S-phase (24°C); Universal nuclease 400 U/ml; 100 mM Hepes-KOH pH 7.9, 100 mM KOAc; associated replisome components by immunoblot

Pol1-4A (Pol1 with mutated CIP-box, from pol1-4A cells) (from UniProt P13382)
binding: binds weakly
